Experimental data published in US20010048926A1, “SYNTHETIC PEPTIDE VACCINES FOR DENTAL CARIES” (priority 1992, published 2001).
Some of these results come from one statement about several compounds together.

Test system: S. mutans
Assay: Protection experiments: bacterial recoveries (S. mutans colonization)
Type: in vivo, Sprague-Dawley rats
Settings: swabbing 59 days after initial infection; range over the GGY and AND groups; not significant

| Sequence | median infection levels as % of the median S. mutans infection level of the sham group |
| --- | --- |
| ANDVDNSNPVVQAEQLNWL | 33-48% |
| GGYEFLLANDVDNSNPVVQ | 33-48% |
